Our source for the binding values is PMC5650356.

Chains of the proteins cited; added tags and fusions are not shown.
UniProt Q9ULW0: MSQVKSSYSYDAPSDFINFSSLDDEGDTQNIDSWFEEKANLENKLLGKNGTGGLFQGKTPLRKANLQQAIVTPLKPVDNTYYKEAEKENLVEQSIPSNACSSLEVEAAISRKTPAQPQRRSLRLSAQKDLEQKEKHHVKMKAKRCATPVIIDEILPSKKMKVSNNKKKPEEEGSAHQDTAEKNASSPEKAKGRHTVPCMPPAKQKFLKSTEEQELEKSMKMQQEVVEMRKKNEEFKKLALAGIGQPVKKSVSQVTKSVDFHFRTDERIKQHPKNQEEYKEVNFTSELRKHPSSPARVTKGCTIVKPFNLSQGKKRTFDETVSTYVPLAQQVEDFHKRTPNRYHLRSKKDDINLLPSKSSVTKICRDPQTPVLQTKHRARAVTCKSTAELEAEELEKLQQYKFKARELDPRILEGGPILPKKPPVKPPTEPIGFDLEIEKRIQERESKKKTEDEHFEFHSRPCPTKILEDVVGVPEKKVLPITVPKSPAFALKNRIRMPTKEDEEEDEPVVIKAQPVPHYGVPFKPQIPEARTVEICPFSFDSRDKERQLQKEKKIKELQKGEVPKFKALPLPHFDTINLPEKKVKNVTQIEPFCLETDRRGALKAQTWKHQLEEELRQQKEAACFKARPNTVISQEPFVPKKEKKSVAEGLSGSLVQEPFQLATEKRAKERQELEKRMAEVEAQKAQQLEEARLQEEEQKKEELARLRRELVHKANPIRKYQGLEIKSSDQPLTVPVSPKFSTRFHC

Common to all, as to test: co-IP; flag-tagged AGS/FAM83D cells, mitotic (300nM nocodazole 24h, shake-off); NP-40 lysis buffer, pre-cleared; primary antibodies overnight at 4 °C, protein A/G plus agarose 4h at 4 °C; five washes in lysis buffer; Western blot
On the technique in general: Immunoblotting shows a protein as a band on a membrane.

Experiment [1] addresses T1, Flag-tagged FAM83D (family with sequence similarity 83, member D) (human) (UniProt Q9H4H8).
T1 sequence: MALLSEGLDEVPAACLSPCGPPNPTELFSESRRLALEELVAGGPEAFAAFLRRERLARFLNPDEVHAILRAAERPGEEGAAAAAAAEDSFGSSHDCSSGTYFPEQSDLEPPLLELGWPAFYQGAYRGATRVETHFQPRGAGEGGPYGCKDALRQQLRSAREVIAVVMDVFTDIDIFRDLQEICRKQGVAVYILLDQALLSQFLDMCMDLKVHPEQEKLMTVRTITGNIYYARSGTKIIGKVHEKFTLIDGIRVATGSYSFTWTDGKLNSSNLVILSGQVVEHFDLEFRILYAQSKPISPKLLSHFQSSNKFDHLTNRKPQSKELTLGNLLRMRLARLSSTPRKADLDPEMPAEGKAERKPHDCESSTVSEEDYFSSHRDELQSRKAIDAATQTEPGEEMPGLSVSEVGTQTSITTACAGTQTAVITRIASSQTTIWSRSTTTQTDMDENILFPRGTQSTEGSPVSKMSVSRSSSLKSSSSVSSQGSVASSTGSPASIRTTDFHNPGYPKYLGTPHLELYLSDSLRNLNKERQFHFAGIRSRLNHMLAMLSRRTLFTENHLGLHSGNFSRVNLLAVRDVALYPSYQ

The target of experiment [2] is T2, AURKA (aurora kinase A) (human (endogenous in AGS)) (UniProt O14965).
T2 sequence: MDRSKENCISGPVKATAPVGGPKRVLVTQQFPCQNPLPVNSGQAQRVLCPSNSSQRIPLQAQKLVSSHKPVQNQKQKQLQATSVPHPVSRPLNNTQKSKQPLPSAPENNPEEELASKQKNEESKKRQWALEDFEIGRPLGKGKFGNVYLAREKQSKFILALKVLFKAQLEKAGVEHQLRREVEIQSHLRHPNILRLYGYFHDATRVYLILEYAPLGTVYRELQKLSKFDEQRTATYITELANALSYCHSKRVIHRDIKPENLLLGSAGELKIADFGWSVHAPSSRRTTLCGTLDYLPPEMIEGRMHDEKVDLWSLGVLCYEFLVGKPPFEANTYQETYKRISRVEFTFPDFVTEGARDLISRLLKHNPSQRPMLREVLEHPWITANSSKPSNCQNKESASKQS

Experiment [3] concerns the target T3, HMMR (hyaluronan-mediated motility receptor) (human (endogenous in AGS)) (UniProt O75330).
T3 sequence: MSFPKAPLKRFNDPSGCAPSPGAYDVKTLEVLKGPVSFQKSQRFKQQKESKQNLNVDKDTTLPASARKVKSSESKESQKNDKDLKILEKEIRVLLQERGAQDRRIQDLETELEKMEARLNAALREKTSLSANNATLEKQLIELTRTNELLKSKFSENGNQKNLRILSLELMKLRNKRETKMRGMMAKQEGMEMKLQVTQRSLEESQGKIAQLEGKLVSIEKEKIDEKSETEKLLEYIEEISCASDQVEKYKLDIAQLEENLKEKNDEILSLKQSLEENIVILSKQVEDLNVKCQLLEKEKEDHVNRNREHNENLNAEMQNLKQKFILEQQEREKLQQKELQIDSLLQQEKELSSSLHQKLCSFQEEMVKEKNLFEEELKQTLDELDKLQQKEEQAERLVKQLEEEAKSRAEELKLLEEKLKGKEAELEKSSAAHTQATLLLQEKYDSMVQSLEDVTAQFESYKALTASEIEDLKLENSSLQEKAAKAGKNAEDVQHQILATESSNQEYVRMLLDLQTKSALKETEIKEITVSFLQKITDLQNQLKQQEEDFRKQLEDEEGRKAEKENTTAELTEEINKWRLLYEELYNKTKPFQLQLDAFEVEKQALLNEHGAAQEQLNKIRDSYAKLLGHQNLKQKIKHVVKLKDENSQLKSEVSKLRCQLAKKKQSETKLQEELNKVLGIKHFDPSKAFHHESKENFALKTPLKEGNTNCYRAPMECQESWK

The target in experiment [4] is TPX2 (targeting protein for Xklp2) (human (endogenous in AGS)) (UniProt Q9ULW0).

These are yes or no findings as the source states them, for the method shown. Binding seen in cells or lysates may run through a third protein. Some results given as binding are weak or reduced against the parent protein; the word gives no strength. Sequences can lack the tags named with a protein.

For the molecule “TPX2 (targeting protein for Xklp2) (from UniProt Q9ULW0 1-747)”, the binding entry in experiment [1] is listed as “binds”.

B1: HMMR (hyaluronan-mediated motility receptor) (protein, UniProt O75330 1-724)
chain: T3 sequence
Turning to B1, the binding result in experiment [1] was “binds”.

B2: endogenous FAM83D (protein, UniProt Q9H4H8 1-585)
chain: T1 sequence
For B2, the binding entry in experiment [1] is listed as “binds”.

B3: Flag-tagged FAM83D (family with sequence similarity 83, member D) (protein, UniProt Q9H4H8 1-585)
chain: T1 sequence
Take B3: the binding result in experiment [2], in experiment [3] and in experiment [4] was “binds” each time.

B4: AURKA (aurora kinase A) (protein, UniProt O14965 1-403)
chain: T2 sequence
In the case of B4, the binding result in experiment [1] was “binds”.
